According to patent US10138292B2, “Cell culture medium” (BIOLAMINA AB, priority 2010, dated 2018):
For some assays here: At least one compound was matched to its structure with a doubt left. Some results were stated once for a whole list of compounds, not compound by compound. Some compounds share one range, which may span the group rather than tell each member.

Experiments:
Format in all cases: cell-based, human
hES cells [1] = test: Cell adhesion assay, 1 hour (Example 2); details: dissociated hES cells
Procedure: Tissue cell culture plates were coated overnight at 4° C. with sterile solutions of the ECM proteins, such as human recombinant LN-521, all at a concentration of 30 μg/ml (5 μg/cm^2). Control plates were coated with Matrigel according to the STEMCELL Technologies' instructions. Prior to use, dishes were pre-warmed in an incubator for one hour after which prewarmed O3 medium was added without additional washing of the dish. After applying a fresh LN-521 solution to a new dish, the remaining LN-521 solution could be used at least once more. All the adhesion, survival, and inhibition of survival experiments were carried out using fresh coating materials.
Briefly, 96-well plates were coated by extracellular matrix proteins as described above and blocked by O3 medium containing bovine serum albumin. The ES cells were plated at cell density of 50,000 cells/cm^2 onto extracellular matrix-coated plates and left to adhere for 1 hour in a cell incubator. After that the plates were washed 3 times with the medium to remove the non-adherent cells, and then the adherent cells were fixed for 20 minutes by 5% glutaraldehyde, stained by 0.1% Crystal Violet. (Kebo Lab, Spanga, Sweden, http://www.kebolab.se). After one hour and 3 washes with water, Crystal Violet was extracted with 10% acetic acid and quantified by measuring optical density at 570 nm. All the experiments were performed in quadruplicate.

hES cells [2] = test: Inhibition of survival assay on LN-521; details: medium contained bFGF
Procedure: The survival assay was performed as described for the cell adhesion assay above, except that the cells were left in the cell incubator for 24 hours. For inhibition of survival assay, the cells were kept in a medium with function blocking antibodies at the concentrations recommended by the manufacturer or pathway inhibitors at concentrations indicated in the text for 30 minutes, and then plated on the coated dishes. All the experiments were performed in quadruplicate.

[3] = system: PI3K/Akt and MEK1/Erk pathways; test: Western blot with antibodies to phospho-Akt / phospho-Erk; details: cells collected one hour after plating on LN-521
Procedure: HS 181 cells were trypsinized into single cell suspension as described above. For inhibition experiments, the cells were kept in O3 medium with blocking antibodies or pathway inhibitors for 30 minutes and then 450K cells were plated on 35 mm dishes precoated with the appropriate matrix coating. For other experiments, same number of cells was plated directly after trypsinization. In all cases the cells were allowed to spread for 1 hour at 37° C., 5% CO2. After two washings in ice-cold PBS, the plates with cells were snap frozen in liquid nitrogen and stored at −80° C. To prepare samples for western blots and ELISA, the plates were slowly thawed and kept on ice with 100-150 μl of lysis buffer (50 mM Tris-HCl, pH7.5, 150 mM NaCl, 0.5% deoxycholate, 0.5% SDS, 1% Triton X-100, 1% Igepal, Complete™ (Roche) and Phospho-Stop™ (Roche)) on top. Then, the cells were scraped, pipetted and sheared through a 27G ¾″ needle. After that, the cell pellets were clarified by centrifugation at 16,100 rcf for 15 minutes at 4° C. For western blots, 4-12% gradient gels were used for SDS electrophoresis and the proteins were transferred to PVDF membranes. The membrane was hybridized with the antibody of interest according to the manufacturer's instructions. […] For the densitometry analysis the films were scanned at 2,400 dpi and analyzed by the Chemilmager5500 program (1D-Multi Line densitometry mode). […]

LN-521: protein formed by joining α5, β2 and γ1 laminin chains; human recombinant, produced in HEK293 cells
cells adhered after one hour (hES cells [1]): 75-80%

LN-111: mouse laminin-111 (Invitrogen), indicated as LN-111 if not otherwise stated
cells adhered after one hour (hES cells [1]): 75-80%

O=c1cc(N2CCOCC2)oc2c(-c3ccccc3)cccc12 [LY 294002]
hES cell survival 24 hours after plating on LN-521 with pathway inhibitor (hES cells [2]): no cells surviving | efficacy of inhibitor treatment by western blot [3]: confirmed

LN-511: human recombinant laminin-511 coating protein
cells adhered after one hour (hES cells [1]): 75-80%
